Some entries of the source have several records that differ or are many. They are shown here; other results are not. The source may hold further records. Results that share an entry differ, and nothing given here explains why; some may be repeats, others may stem from another dose, organism or construct than stated.
Test system: 403 nonmutant kinases

## C=CC(=O)N1CCC(F)(CNc2ncnc(N)c2-c2ccc(Oc3ccccc3)cc2)CC1
  selectivity ratio: 0.015, 0.005, 0.002

— publication PMC12426595 (Cancer Research Communications, 2025)
